At least one read-out could not be matched to a standard name with certainty.
Assay: Transferability of nobiletin into blood circulation during oral administration to mice
Format: in vivo
Settings: 200 mg/kg, plasma
Text: [Evaluation of Transferability of Nobiletin into Blood Circulation During Oral Administration to Mice]
C57BL/6J mice (male, 6 week-old) were purchased from CLEA Japan, Inc. The mice were habituated to the environment for one week or more, and were fed to a test. Each of the test groups consisted of 8 mice, which was believed to be the minimum number required to ensure the statistical significance of the test system.
Mice were bred in the facility for one week under ad libitum feeding of solid food (CE-s), and the test was performed using the mice. The mice were fasted for 16 hours, and blood was initially collected from the orbital sinus of each mouse under isoflurane anesthesia (heparin-treated micro hematocrit blood collection tube, manufactured by VITREX Medical A/S). Each sample solution was then administrated into the stomach of the mice at a dose of 200 mg/kg weight per mouse using a probe. […]
The collected blood samples were centrifuged at 12,000 rpm for 10 minutes, and 30 μL of plasma in each sample was recovered into an Eppendorf tube. […] The nobiletin concentration in the plasma was measured by LC-MS/MS.
30 μL of acetonitrile was added to 30 μL of the recovered plasma, was stirred with a vortex mixer for 5 seconds, and was centrifuged at 12,000 rpm for 15 minutes at room temperature. […] The nobiletin concentration was then measured by LC-MS/MS.

## COc1ccc(-c2cc(=O)c3c(OC)c(OC)c(OC)c(OC)c3o2)cc1OC [Nobiletin, 3′,4′,5,6,7,8-hexamethoxyflavone]
  Time of Cmax (minutes after administration): (60 minutes after
Listed as nobiletin bulk substance
  Time of Cmax (minutes after administration): 60 min
